Values from PubChem BioAssay AID1259425 (University of Nebraska Medical Center, 2018).
The deposit covers about 14,000 reagents; below is an unselected part. A reagent listed more than once was tested more than once; the source does not tell the runs apart. Not all columns of the deposit are shown. The record does not give: the time to read-out.

Test: 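Find knockdowns that reproduce the gene expression pattern seen when KSR1 is lost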 (primary screen)
Cell system: HCT116 human colon cancer cells
Reagents: siRNA pool against human genes, 50 nM siRNA
Measurement: 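After 50 nM siRNA pool, branched-DNA assay measures six marker transcripts per well, minus blank, normalised to the geometric mean of two housekeeping transcripts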
Scale: BNIP3L mRNA: higher = more BNIP3L transcript after knockdown

gene	BNIP3L mRNA, set 1
SPIC (GeneID 121599)	0.202
BZW1 (GeneID 9689)	0.106
MAN2A2 (GeneID 4122)	0.118
ATP2C1 (GeneID 27032)	0.0828
HIGD1B (GeneID 51751)	0.0897
KCNA7 (GeneID 3743)	0.0784
DRC8 (GeneID 84288)	0.129
ENTPD1 (GeneID 953)	0.126
OR5F1 (GeneID 338674)	0.192
PRDM15 (GeneID 63977)	0.11
GUCY2F (GeneID 2986)	0.116
RNF114 (GeneID 55905)	0.0656
FRAT2 (GeneID 23401)	0.0899
ANP32E (GeneID 81611)	0.146
PNMT (GeneID 5409)	0.136
FBXL4 (GeneID 26235)	0.114
OBP2A (GeneID 29991)	0.0877
BFSP1 (GeneID 631)	0.116
SMARCA2 (GeneID 6595)	0.0752
PKD1 (GeneID 5310)	0.206
NLRX1 (GeneID 79671)	0.148
MLC1 (GeneID 23209)	0.235
FAM107A (GeneID 11170)	0.0793
NRBF2 (GeneID 29982)	0.0688
RBMS2 (GeneID 5939)	0.0746

A stretch from the list above, for reference:
gene	BNIP3L mRNA, set 1
ANP32E (GeneID 81611)	0.146
PNMT (GeneID 5409)	0.136
FBXL4 (GeneID 26235)	0.114
OBP2A (GeneID 29991)	0.0877
BFSP1 (GeneID 631)	0.116
SMARCA2 (GeneID 6595)	0.0752
PKD1 (GeneID 5310)	0.206

The listing continues:
gene	BNIP3L mRNA, set 1
TMEM87A (GeneID 25963)	0.0445
SPDEF (GeneID 25803)	0.249
ALX3 (GeneID 257)	0.171
DRC7 (GeneID 84229)	0.138
ICAM2 (GeneID 3384)	0.0981
ABCA4 (GeneID 24)	0.168
CDK14 (GeneID 5218)	0.145
SOST (GeneID 50964)	0.0445
ARL6IP5 (GeneID 10550)	0.128
NDOR1 (GeneID 27158)	0.0734
CD99 (GeneID 4267)	0.116
AQP6 (GeneID 363)	0.114
TMEM14A (GeneID 28978)	0.133
ARHGEF38 (GeneID 54848)	0.0465
PSPN (GeneID 5623)	0.0839
RAB40C (GeneID 57799)	0.104
LTF (GeneID 4057)	0.108
F10 (GeneID 2159)	0.12
NCR1 (GeneID 9437)	0.123
ANKRD6 (GeneID 22881)	0.0917
DCTN4 (GeneID 51164)	0.0955
SPEG (GeneID 10290)	0.106
SPEG (GeneID 10290)	0.0949
CAPN11 (GeneID 11131)	0.0793
RPL6 (GeneID 6128)	0.661
